PubChem BioAssay AID248 (DTP/NCI, 2004)
The list shows only some results of the screen, not a fair sample: it is rich in T/C values a quarter to a half above the control, in often repeated tests (any T/C) and in doses without a T/C. Other doses and runs of a compound stand elsewhere. T/C is the treated group as % of the vehicle group. Some doses have a count of surviving animals in place of a T/C: the source files T/C as zero there, which appears to mark a toxic dose or a test without result, not a measured value. Some survivor counts are full or nearly so, which does not show that the dose was tolerated: the source hardly ever lists a survival T/C far under the control, and the zero likely stands for such cases as well. Survivors were counted at the toxicity check, usually on the fifth day, unless a day is given; later deaths do not show. Schedules are NCI's codes, read here as Q, the interval in days (D) or hours (H), X, the number of doses. Some entries hold several experiments; the results are listed from low to high. Some schedules carry Z or #; the key to these is not given. For survival time, the PubChem record calls one and a half times the control and up active, and a quarter to a half above the control has no call in these data; cut-offs in other NCI protocols can differ.

System: L1210 leukemia ip in BDF1 mice, survival T/C
Experiment: NCI In Vivo Anticancer Drug Screen. Data for tumor model L1210 Leukemia (intraperitoneal) in B6D2F1 (BDF1) mice
Details: T/C endpoint: mean survival time, higher T/C = longer survival
[1] = dose: 400.0 mg/kg/injection, schedule: Q01DX009 (ip), vehicle: Klucel (hydroxypropylcellulose) (HPC)
[2] = dose: 100.0 mg/kg/injection, schedule: Q04DX003 (ip), vehicle: saline
[3] = dose: 400.0 mg/kg/injection, schedule: Q04DX003 (ip), vehicle: saline

CC(=O)Nc1ccc[n+](Cc2ccc(S(=O)(=O)F)cc2)c1
survivor count (dose: 100.0 mg/kg/injection, schedule: Q04DX003 (ip), vehicle: Klucel (hydroxypropylcellulose) (HPC)): 1 of 6 and 3 of 6
survivor count (dose: 200.0 mg/kg/injection, schedule: Q04DX003 (ip), vehicle: Klucel (hydroxypropylcellulose) (HPC)): 0 of 6
survivor count (dose: 400.0 mg/kg/injection, schedule: Q04DX003 (ip), vehicle: Klucel (hydroxypropylcellulose) (HPC)): 0 of 6

CSc1nc(C)c(Br)c(N2CC2)n1
survivor count (dose: 25.0 mg/kg/injection, schedule: Q01DX Z (ip), vehicle: methylcellulose (MC)): 0 of 6
survivor count (dose: 100.0 mg/kg/injection, schedule: Q01DX Z (ip), vehicle: methylcellulose (MC)): 0 of 6
survivor count (dose: 200.0 mg/kg/injection, schedule: Q01DX Z (ip), vehicle: methylcellulose (MC)): 0 of 6

Cc1cccc(NC(=O)c2c(Br)c(Br)c(Br)c(Br)c2C(=O)O)c1C
survivor count [1]: 1 of 6

CCCCC1(C)CCC(=O)O1 (configuration not stated)
T/C (dose: 100.0 mg/kg/injection, schedule: Q01DX001 (ip), vehicle: saline): 126 % of control

Cc1noc(C)c1CON
survivor count (dose: 150.0 mg/kg/injection, schedule: Q01DX001 (ip), vehicle: saline): 6 of 6

COc1cc2c(C)cc(=O)oc2cc1O
survivor count (dose: 200.0 mg/kg/injection, schedule: Q01DX001 (ip), vehicle: carboxymethylcellulose (CMC)): 4 of 4

CCOC(=O)c1cnc(C)nc1Nc1ccccc1Cl
survivor count [2]: 1 of 6
survivor count [3]: 0 of 6

CC(C)(Cc1c[nH]c2ccccc12)NC(=O)c1ccccc1
survivor count (dose: 200.0 mg/kg/injection, schedule: Q01DX009 (ip), vehicle: Klucel (hydroxypropylcellulose) (HPC)): 6 of 6

CSc1ccc(/C=N/NC(N)=S)cc1
survivor count [1]: 6 of 6

C/C(=N/N=C(N)N)c1cccc(NC(=O)Nc2cccc(/C(C)=N\N=C(N)N)c2)c1
T/C [2]: 131 % of control
survivor count (dose: 200.0 mg/kg/injection, schedule: Q04DX003 (ip), vehicle: saline): 3 of 6
survivor count [3]: 0 of 6
